{
  "source": "patent US20220073617A1",
  "binders": {"B1": {"name": "PSGL1-Fc / recombinant human PSGL-1 (construct limits not stated) (Fc fusion, UniProt Q14242 42-295, looked up, not shown: a dimerising Fc or GST)", "chain": "QATEYEYLDYDFLPETEPPEMLRNSTDTTPLTGPGTPESTTVEPAARRSTGLDAGGAVTELTTELANMGNLSTDSAAMEIQTTQPAATEAQTTQPVPTEAQTTPLAATEAQTTRLTATEAQTTPLAATEAQTTPPAATEAQTTQPTGLEAQTTAPAAMEAQTTAPAAMEAQTTPPAAMEAQTTQTTAMEAQTTAPEATEAQTTQPTATEAQTTPLAAMEALSTEPSATEALSMEPTTKRGLFIPFSVSSVTHKG"}},
  "target": "T1, human VISTA on cells (human monocytes, AML3 cells, 293T/HEK293 cells expressing full-length human VISTA) (human) (UniProt Q9H7M9)",
  "T1 sequence": "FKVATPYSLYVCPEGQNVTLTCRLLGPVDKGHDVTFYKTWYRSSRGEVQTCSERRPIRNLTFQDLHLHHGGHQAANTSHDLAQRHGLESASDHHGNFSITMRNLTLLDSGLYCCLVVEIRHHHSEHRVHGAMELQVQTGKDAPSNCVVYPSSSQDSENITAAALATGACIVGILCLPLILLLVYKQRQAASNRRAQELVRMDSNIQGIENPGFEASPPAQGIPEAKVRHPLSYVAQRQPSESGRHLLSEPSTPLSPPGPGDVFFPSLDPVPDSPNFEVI",
  "experiment": "cell-based assay, acidic pH",
  "note": "These are yes or no findings as the source states them, for the method shown. Some entries that bind do so weakly or less than the wild type. Tags and fused reporters may be left off the sequences shown.",
  "data": [
    {"binder": "B1", "values": [
      {"measurement": "binding", "result": "binds"}
    ]}
  ]
}
